Reference: US7488730B2, “N-(1,2,3,4-tetrahydronaphthalen-1-yl)-4-phenyl-1-piperazinealkylamide derivatives, and therapeutic use thereof as 5-HT7 receptor ligands” (Universita Degli Studi Di Bari, priority 2005, dated 2009)
Some of these results come from one statement about several compounds together.

Protein sequences, listed by entry. Tags and fused reporters are not part of them.
UniProt P14842, whole entry: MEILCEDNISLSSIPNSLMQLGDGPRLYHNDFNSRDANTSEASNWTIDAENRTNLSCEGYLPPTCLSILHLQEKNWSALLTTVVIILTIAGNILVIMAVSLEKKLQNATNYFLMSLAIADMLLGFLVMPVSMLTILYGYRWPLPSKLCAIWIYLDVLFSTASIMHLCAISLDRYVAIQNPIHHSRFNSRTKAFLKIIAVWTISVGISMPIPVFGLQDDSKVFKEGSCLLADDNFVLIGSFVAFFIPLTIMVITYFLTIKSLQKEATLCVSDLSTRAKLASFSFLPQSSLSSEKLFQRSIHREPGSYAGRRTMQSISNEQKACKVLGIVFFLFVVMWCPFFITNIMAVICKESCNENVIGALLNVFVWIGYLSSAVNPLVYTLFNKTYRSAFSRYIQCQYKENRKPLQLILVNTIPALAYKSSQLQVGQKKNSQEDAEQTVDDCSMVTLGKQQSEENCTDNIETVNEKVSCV

Molecular target: 5-HT2A receptors (Rattus norvegicus, UniProt P14842)
Assay: Radioligand binding assay ([3H]-ketanserin) at rat cortex membranes 5-HT2A receptors

Structure (SMILES): O=C(CCCCCN1CCN(c2ccccc2[N+](=O)[O-])CC1)NC1CCCc2ccccc21 (centres unmarked) [Compound 48]
- 5-HT2A receptor affinities (in words): negligible

Structure (SMILES): COc1ccc(OC)c(N2CCN(CCCCCC(=O)NC3CCCc4ccccc43)CC2)c1 (centres unmarked) [Compound 36]
- 5-HT2A receptor affinities (in words): negligible

Structure (SMILES): COc1cccc(N2CCN(CCCCCC(=O)NC3CCCc4ccccc43)CC2)c1 (centres unmarked) [Compound 37]
- 5-HT2A receptor affinities (in words): negligible

Structure (SMILES): CC(=O)c1cccc(N2CCN(CCCCCC(=O)NC3CCCc4ccccc43)CC2)c1 (centres unmarked) [Compound 41]
- 5-HT2A receptor affinities (in words): negligible

Structure (SMILES): N#Cc1cccc(N2CCN(CCCCCC(=O)NC3CCCc4ccccc43)CC2)c1 (centres unmarked) [Compound 39]
- 5-HT2A receptor affinities (in words): negligible

Structure (SMILES): CSc1ccccc1N1CCN(CCCCCC(=O)NC2CCCc3ccccc32)CC1 (centres unmarked) [Compound 44, 4-(2-Methylthiophenyl)-N-(1,2,3,4-tetrahydronaphthalen-1-yl)-1-piperazinehexanamide]
- 5-HT2A receptor affinities (in words): negligible

Structure (SMILES): O=C(CCCCCN1CCN(c2ccccc2)CC1)NC1CCCc2ccccc21 (centres unmarked) [Compound 50]
- 5-HT2A receptor affinities (in words): negligible

Structure (SMILES): COc1cc(Cl)ccc1N1CCN(CCCCCC(=O)NC2CCCc3ccccc32)CC1 (centres unmarked) [Compound 35]
- 5-HT2A receptor affinities (in words): negligible
